# Reference: the supplement of paper PMC8728848
# This is one part of the list.
# B1: CBP21 (Serratia marcescens), O83009 (protein)
# chain: MNKTSRTLLSLGLLSAAMFGVSQQANAHGYVESPASRAYQCKLQLNTQCGSVQAEPQSVEGLKGFPQAGPADGHIASADKSTFFELDQQTPTRWNKLNLKTGPNSFTWKLTARHSTTSWRYFITKPNWDASQPLTRASFDLTPFCQFNDGGAIPAAQVTHQCNIPADRSGSHVILAVWDIADTANAFYQAIDVNLSK
# How the values were obtained:
# Experiment in all cases: glycan array binding signal (z-score within array); higher = stronger binding
# Conditions in all cases: glycan notation: IUPAC condensed, linker removed; mutation: Y54A
# [1] = molecular target: Fuc(a1-2)Gal(b1-4)[Fuc(a1-3)]GlcNAc
# In short: (§1)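 Glycan array data were curated from 3228 arrays in the Consortium for Functional Glycomics database and kept only where the protein sequence was available. Glycan names were converted to IUPAC-condensed notation, and columns mapping to the same glycan were averaged. The binding signal is a within-array Z-score, averaged across arrays of the same protein sequence at different concentrations or buffers and across linkers. Negative Z-scores can be read as non-binding.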
# [2] = molecular target: Fuc(a1-2)Gal(b1-4)[Fuc(a1-3)]GlcNAc(b1-2)Man(a1-3)[Fuc(a1-2)Gal(b1-4)[Fuc(a1-3)]GlcNAc(b1-2)Man(a1-6)]Man(b1-4)GlcNAc(b1-4)[Fuc(a1-6)]GlcNAc
# In short: as §1
# [3] = molecular target: Fuc(a1-2)Gal(b1-4)[Fuc(a1-3)]GlcNAc(b1-2)[Fuc(a1-2)Gal(b1-4)[Fuc(a1-3)]GlcNAc(b1-4)]Man(a1-3)[Fuc(a1-2)Gal(b1-4)[Fuc(a1-3)]GlcNAc(b1-2)Man(a1-6)]Man(b1-4)GlcNAc(b1-4)GlcNAc
# In short: as §1
# [4] = molecular target: Fuc(a1-2)Gal(b1-4)[Fuc(a1-3)]GlcNAc(b1-3)Gal(b1-4)[Fuc(a1-3)]GlcNAc
# In short: as §1
# [5] = molecular target: Fuc(a1-2)Gal(b1-4)[Fuc(a1-3)]GlcNAc(b1-3)Gal(b1-4)[Fuc(a1-3)]GlcNAc(b1-3)Gal(b1-4)[Fuc(a1-3)]GlcNAc
# In short: as §1
# [6] = molecular target: Fuc(a1-2)Gal(b1-4)[Fuc(a1-3)]GlcNAc(b1-3)GalNAc
# In short: as §1
# [7] = molecular target: Fuc(a1-2)Gal(b1-4)[Fuc(a1-3)]GlcNAc(b1-3)[Neu5Ac(a2-6)Gal(b1-4)GlcNAc(b1-6)]Gal(b1-4)Glc
# In short: as §1
# [8] = molecular target: Fuc(a1-2)Gal3S(b1-4)GlcNAc
# In short: as §1
# [9] = molecular target: Fuc(a1-2)Gal6S(b1-3)GlcNAc
# In short: as §1
# [10] = molecular target: Fuc(a1-2)Gal6S(b1-3)GlcNAc6S
# In short: as §1
# [11] = molecular target: Fuc(a1-2)Gal6S(b1-4)Glc
# In short: as §1
# [12] = molecular target: Fuc(a1-2)Gal6S(b1-4)Glc6S
# In short: as §1
# [13] = molecular target: Fuc(a1-2)[Gal(a1-3)]Gal
# In short: as §1
# [14] = molecular target: Fuc(a1-2)[Gal(a1-3)]Gal(b1-3)GalNAc
# In short: as §1
# [15] = molecular target: Fuc(a1-2)[Gal(a1-3)]Gal(b1-3)GalNAc(b1-3)Gal(a1-4)Gal(b1-4)Glc
# In short: as §1
# [16] = molecular target: Fuc(a1-2)[Gal(a1-3)]Gal(b1-3)GlcNAc
# In short: as §1
# [17] = molecular target: Fuc(a1-2)[Gal(a1-3)]Gal(b1-3)GlcNAc(b1-2)Man(a1-3)[Fuc(a1-2)[Gal(a1-3)]Gal(b1-3)GlcNAc(b1-2)Man(a1-6)]Man(b1-4)GlcNAc(b1-4)GlcNAc
# In short: as §1
# [18] = molecular target: Fuc(a1-2)[Gal(a1-3)]Gal(b1-3)GlcNAc(b1-2)Man(a1-3)[Fuc(a1-2)[Gal(a1-3)]Gal(b1-3)GlcNAc(b1-2)Man(a1-6)]Man(b1-4)GlcNAc(b1-4)[Fuc(a1-6)]GlcNAc
# In short: as §1
# [19] = molecular target: Fuc(a1-2)[Gal(a1-3)]Gal(b1-3)GlcNAc(b1-3)GalNAc
# In short: as §1
# [20] = molecular target: Fuc(a1-2)[Gal(a1-3)]Gal(b1-3)GlcNAc(b1-6)GalNAc
# In short: as §1
# [21] = molecular target: Fuc(a1-2)[Gal(a1-3)]Gal(b1-4)Glc
# In short: as §1
# [22] = molecular target: Fuc(a1-2)[Gal(a1-3)]Gal(b1-4)GlcNAc
# In short: as §1
# [23] = molecular target: Fuc(a1-2)[Gal(a1-3)]Gal(b1-4)GlcNAc(b1-2)Man
# In short: as §1
# [24] = molecular target: Fuc(a1-2)[Gal(a1-3)]Gal(b1-4)GlcNAc(b1-2)Man(a1-3)[Fuc(a1-2)[Gal(a1-3)]Gal(b1-4)GlcNAc(b1-2)Man(a1-6)]Man(b1-4)GlcNAc(b1-4)GlcNAc
# In short: as §1
# [25] = molecular target: Fuc(a1-2)[Gal(a1-3)]Gal(b1-4)GlcNAc(b1-2)Man(a1-3)[Fuc(a1-2)[Gal(a1-3)]Gal(b1-4)GlcNAc(b1-2)Man(a1-6)]Man(b1-4)GlcNAc(b1-4)[Fuc(a1-6)]GlcNAc
# In short: as §1
# [26] = molecular target: Fuc(a1-2)[Gal(a1-3)]Gal(b1-4)GlcNAc(b1-3)GalNAc
# In short: as §1
# [27] = molecular target: Fuc(a1-2)[Gal(a1-3)]Gal(b1-4)GlcNAc(b1-3)[Fuc(a1-2)[Gal(a1-3)]Gal(b1-4)GlcNAc(b1-6)]GalNAc
# In short: as §1
# [28] = molecular target: Fuc(a1-2)[Gal(a1-3)]Gal(b1-4)GlcNAc(b1-6)GalNAc
# In short: as §1
# [29] = molecular target: Fuc(a1-2)[Gal(a1-3)]Gal(b1-4)[Fuc(a1-3)]Glc
# In short: as §1
# [30] = molecular target: Fuc(a1-2)[Gal(a1-3)]Gal(b1-4)[Fuc(a1-3)]GlcNAc
# In short: as §1
# [31] = molecular target: Fuc(a1-2)[Gal(a1-3)]Gal(b1-4)[Fuc(a1-3)]GlcNAc(b1-3)GalNAc
# In short: as §1
# [32] = molecular target: Fuc(a1-2)[Gal(a1-4)]Gal(b1-4)GlcNAc
# In short: as §1
# [33] = molecular target: Fuc(a1-2)[GalNAc(a1-3)]Gal
# In short: as §1
# [34] = molecular target: Fuc(a1-2)[GalNAc(a1-3)]Gal(b1-3)GalNAc(a1-3)[Fuc(a1-2)]Gal(b1-4)GlcNAc
# In short: as §1
# [35] = molecular target: Fuc(a1-2)[GalNAc(a1-3)]Gal(b1-3)GalNAc(b1-3)Gal(a1-4)Gal(b1-4)Glc
# In short: as §1
# [36] = molecular target: Fuc(a1-2)[GalNAc(a1-3)]Gal(b1-3)GlcNAc
# In short: as §1
# [37] = molecular target: Fuc(a1-2)[GalNAc(a1-3)]Gal(b1-3)GlcNAc(b1-2)Man(a1-3)[Fuc(a1-2)[GalNAc(a1-3)]Gal(b1-3)GlcNAc(b1-2)Man(a1-6)]Man(b1-4)GlcNAc(b1-4)GlcNAc
# In short: as §1
# [38] = molecular target: Fuc(a1-2)[GalNAc(a1-3)]Gal(b1-3)GlcNAc(b1-2)Man(a1-3)[Fuc(a1-2)[GalNAc(a1-3)]Gal(b1-3)GlcNAc(b1-2)Man(a1-6)]Man(b1-4)GlcNAc(b1-4)[Fuc(a1-6)]GlcNAc
# In short: as §1
binder,measurement,setting,value
B1,glycan array binding signal (z-score),[1],-0.361
same,glycan array binding signal (z-score),[2],1.71
same,glycan array binding signal (z-score),[3],0.615
same,glycan array binding signal (z-score),[4],-0.822
same,glycan array binding signal (z-score),[5],-0.3
same,glycan array binding signal (z-score),[6],-0.915
same,glycan array binding signal (z-score),[7],-0.723
same,glycan array binding signal (z-score),[8],0.539
same,glycan array binding signal (z-score),[9],4.33
same,glycan array binding signal (z-score),[10],-0.379
same,glycan array binding signal (z-score),[11],-0.65
same,glycan array binding signal (z-score),[12],0.343
same,glycan array binding signal (z-score),[13],-0.156
same,glycan array binding signal (z-score),[14],-0.073
same,glycan array binding signal (z-score),[15],1.11
same,glycan array binding signal (z-score),[16],0.016
same,glycan array binding signal (z-score),[17],-0.566
same,glycan array binding signal (z-score),[18],-0.385
same,glycan array binding signal (z-score),[19],-0.461
same,glycan array binding signal (z-score),[20],-0.403
same,glycan array binding signal (z-score),[21],-0.969
same,glycan array binding signal (z-score),[22],-0.657
same,glycan array binding signal (z-score),[23],0.02
same,glycan array binding signal (z-score),[24],1.38
same,glycan array binding signal (z-score),[25],-0.454
same,glycan array binding signal (z-score),[26],2.45
same,glycan array binding signal (z-score),[27],0.01
same,glycan array binding signal (z-score),[28],-1.03
same,glycan array binding signal (z-score),[29],0.964
same,glycan array binding signal (z-score),[30],-0.1
same,glycan array binding signal (z-score),[31],2.87
same,glycan array binding signal (z-score),[32],0.389
same,glycan array binding signal (z-score),[33],-0.141
same,glycan array binding signal (z-score),[34],-0.283
same,glycan array binding signal (z-score),[35],-0.164
same,glycan array binding signal (z-score),[36],-0.825
same,glycan array binding signal (z-score),[37],2.23
same,glycan array binding signal (z-score),[38],0.995

# 3 records drawn at random from the list so far, as already listed:
binder,measurement,setting,value
B1,glycan array binding signal (z-score),[28],-1.03
same,glycan array binding signal (z-score),[21],-0.969
same,glycan array binding signal (z-score),[22],-0.657
